Results: patent publication US7498029B2, “Photoimmunotherapies for cancer using combination therapies” (The General Hospital Corporation, priority 2001, dated 2009)
Some results were stated once for a whole list of compounds, not compound by compound.

What was measured:
[1] = test system: EGFR-overexpressing A-431 cells; test: Phototoxicity and competition studies, MTT assay; assay type: cell-based, human; details: 40-hour incubation, light dose of 20 J/cm2
CHO-EGF cells = test: PDT/PIT phototoxicity, MTT assay, CHO-EGF cells; assay type: cell-based; details: 140 nM, light dose of 2 J/cm^2, MTT 24 hours after illumination

BPD Verteporfin
reduction in viability [1]: greater than 99%
viability (CHO-EGF cells): less than 20%
